B1: pIL2LTrim2: huIL2 leader with an intervening Ala-Ser-Ser linker preceding solCD39 (protein)
chain: TQNKALPENVKYGIVLDAGSSHTSLYIYKWPAEKENDTGVVHQVEECRVKGPGISKFVQKVNEIGIYLTDCMERAREVIPRSQHQETPVYLGATAGMRLLRMESEELADRVLDVVERSLSNYPFDFQGARIITGQEEGAYGWITINYLLGKFSQKTRWFSIVPYETNNQETFGALDLGGASTQVTFVPQNQTIESPDNALQFRLYGKDYNVYTHSFLCYGKDQALWQKLAKDIQVASNEILRDPCFHPGYKKVVNVSDLYKTPCTKRFEMTLPFQQFEIQGIGNYQQCHQSILELFNTSYCPYSQCAFNGIFLPPLQGDFGAFSAFYFVMKFLNLTSEKVSQEKVTEMMKKFCAQPWEEIKTSYAGVKEKYLSEYCFSGTYILSLLLQGYHFTADSWEHIHFIGKIQGSDAGWTLGYMLNLTNMIPAEQPLSTPLSHST
modifications: left off: small tags and cut ends
B2: pIL2LSolCD39: untagged soluble human CD39 with huIL2 leader, 12 mature IL2 residues and three amino acid linker (SEQ ID NO:7) (protein)
chain: MALWIDRMQLLSCIALSLALVTNSAPTSSSTKKTQLTSSTQNKALPENVKYGIVLDAGSSHTSLYIYKWPAEKENDTGVVHQVEECRVKGPGISKFVQKVNEIGIYLTDCMERAREVIPRSQHQETPVYLGATAGMRLLRMESEELADRVLDVVERSLSNYPFDFQGARIITGQEEGAYGWITINYLLGKFSQKTRWFSIVPYETNNQETFGALDLGGASTQVTFVPQNQTIESPDNALQFRLYGKDYNVYTHSFLCYGKDQALWQKLAKDIQVASNEILRDPCFHPGYKKVVNVSDLYKTPCTKRFEMTLPFQQFEIQGIGNYQQCHQSILELFNTSYCPYSQCAFNGIFLPPLQGDFGAFSAFYFVMKFLNLTSEKVSQEKVTEMMKKFCAQPWEEIKTSYAGVKEKYLSEYCFSGTYILSLLLQGYHFTADSWEHIHFIGKIQGSDAGWTLGYMLNLTNMIPAEQPLSTPLSHST
B3: pIL2LTrim1: huIL2 leader joined to solCD39 with an intervening alanine residue (SEQ ID NO:27) (protein)
chain: MALWIDRMQLLSCIALSLALVTNSATQNKALPENVKYGIVLDAGSSHTSLYIYKWPAEKENDTGVVHQVEECRVKGPGISKFVQKVNEIGIYLTDCMERAREVIPRSQHQETPVYLGATAGMRLLRMESEELADRVLDVVERSLSNYPFDFQGARIITGQEEGAYGWITINYLLGKFSQKTRWFSIVPYETNNQETFGALDLGGASTQVTFVPQNQTIESPDNALQFRLYGKDYNVYTHSFLCYGKDQALWQKLAKDIQVASNEILRDPCFHPGYKKVVNVSDLYKTPCTKRFEMTLPFQQFEIQGIGNYQQCHQSILELFNTSYCPYSQCAFNGIFLPPLQGDFGAFSAFYFVMKFLNLTSEKVSQEKVTEMMKKFCAQPWEEIKTSYAGVKEKYLSEYCFSGTYILSLLLQGYHFTADSWEHIHFIGKIQGSDAGWTLGYMLNLTNMIPAEQPLSTPLSHST

Assay: ELISA (anti-CD39) of solCD39 in conditioned medium
Conditions: COS-1 cells
[1] = 10 cm plates, 5 days, 1x supernatant
[2] = T175 flasks (30 mL), 5-day 1x supernatant

Molecule	[CD39] in CM [1] [µg/mL]	[CD39] in CM [2] [µg/mL]
B1	0.21	0.113
B2	0.75	0.796
B3	0.21	0.143
